Results taken from PMC11904942.
Results are given in words; binding and its absence hold for the method and conditions named. In cells and extracts the contact can be indirect. These calls come from enrichment with a bait or labelling near it, and not all partners need be listed.

Chains of the proteins cited; added tags and fusions are not shown.
UniProt P42568: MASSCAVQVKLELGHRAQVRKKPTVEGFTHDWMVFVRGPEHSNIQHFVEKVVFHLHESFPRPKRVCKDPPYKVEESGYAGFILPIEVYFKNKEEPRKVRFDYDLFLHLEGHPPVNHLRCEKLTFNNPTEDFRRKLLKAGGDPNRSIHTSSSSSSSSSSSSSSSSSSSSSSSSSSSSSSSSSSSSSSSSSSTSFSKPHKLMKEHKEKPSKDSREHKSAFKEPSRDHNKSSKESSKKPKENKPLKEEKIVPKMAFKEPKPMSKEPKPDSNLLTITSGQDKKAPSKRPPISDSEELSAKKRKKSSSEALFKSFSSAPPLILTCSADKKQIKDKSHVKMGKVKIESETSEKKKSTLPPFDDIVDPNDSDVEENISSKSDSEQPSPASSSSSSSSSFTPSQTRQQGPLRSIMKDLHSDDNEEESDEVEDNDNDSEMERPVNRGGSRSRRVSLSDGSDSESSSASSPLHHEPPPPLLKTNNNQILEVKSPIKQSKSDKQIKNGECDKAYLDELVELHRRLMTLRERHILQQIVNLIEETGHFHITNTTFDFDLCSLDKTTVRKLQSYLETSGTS
UniProt P09429: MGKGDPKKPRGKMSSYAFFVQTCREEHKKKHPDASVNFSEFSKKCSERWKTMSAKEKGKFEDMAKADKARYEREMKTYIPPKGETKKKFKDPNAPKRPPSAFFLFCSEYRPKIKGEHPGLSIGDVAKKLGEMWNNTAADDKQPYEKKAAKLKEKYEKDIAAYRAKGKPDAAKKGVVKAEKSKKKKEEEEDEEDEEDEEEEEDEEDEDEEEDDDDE
UniProt P67809: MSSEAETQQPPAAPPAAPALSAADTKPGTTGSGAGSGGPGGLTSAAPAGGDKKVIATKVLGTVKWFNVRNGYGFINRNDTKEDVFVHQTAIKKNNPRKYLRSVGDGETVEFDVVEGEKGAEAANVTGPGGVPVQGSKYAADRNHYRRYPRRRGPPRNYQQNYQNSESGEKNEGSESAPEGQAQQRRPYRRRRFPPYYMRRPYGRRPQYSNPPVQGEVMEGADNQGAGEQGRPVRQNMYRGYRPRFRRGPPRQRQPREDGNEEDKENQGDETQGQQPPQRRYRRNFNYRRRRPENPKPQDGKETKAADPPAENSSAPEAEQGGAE

Molecular target: Flag-MLLT3 (Myeloid/Lymphoid Or Mixed-Lineage Leukemia; Translocated To, 3), full length (human) (UniProt P42568)
Test: affinity purification with mass spectrometry; HEK-293T cells transfected with the Flag-MLLT3 plasmid; MLLT3-interacting proteins purified and analysed by LC-MS/MS

binding | Substance
binds | High mobility group box 1 (HMGB1), found with Flag-MLLT3 by LC-MS/MS (from UniProt P09429 1-215)
binds | Y-box binding protein 1 (YBX1), found with Flag-MLLT3 by LC-MS/MS (from UniProt P67809 1-324)
